According to PubChem BioAssay AID1347076 (National Center for Advancing Translational Sciences (NCATS), 2019):
About 13,000 (3.2%) of roughly 400,000 compounds were called active. The shares of active, inactive and inconclusive entries below differ from those in the screen. Calls follow the shape of the dose curve; as a rule, active = well fitted cell-killing curve with a large enough effect; inconclusive = small, poorly fitted or top-dose-only effect, or effect the other way; inactive = flat fitted curve, though single readings scatter. Potencies of inconclusive entries are doubtful fits and often do not repeat. Where a structure was tested more than once in an assay, its records may differ in their call.
% is scaled to controls: 0 for no effect and ±100 for the full control effect; potency is read from the fitted curve at half-maximal effect.

Test: qHTS assay for MDR1-selective chemotherapeutics: Primary screen using the drug-selected MDR subline cells KB-V1; also: nearly all actives have a fitted effect of over 60% in size
Details: KB-V1 MDR cells viability, CellTiter-Glo, 72 h; activity change, negative = cytotoxicity: at 46.1 µM (top of the series)
Procedure, shortened: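 Cytotoxicity toward P-gp-expressing KB-V1 cells was determined as loss of CellTiter-Glo luminescence after 72 h at 37 degrees C. Compounds were tested in quantitative HTS format across a concentration range, with curves fitted to normalized data.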
For `O=S1(=O)CCOC[C@H](CC2CCCCC2)N1Cc1cccc(C(F)(F)F)c1`, the Potency was active: 13 µM.
For `CCCCc1nnc2c(N(C)S(=O)(=O)c3ccc(C)cc3)nc3ccccc3n12`, the activity change, negative = cytotoxicity was inconclusive: -35.7%.
In the case of `Cc1noc(C)c1C(=O)N1CCCC(C)(C(=O)NS(=O)(=O)C2CC2)C1` (stereo not drawn), the “activity change, negative = cytotoxicity” value is reported as inactive: 4.03%.
In the case of `CCOc1ccc(NC(=O)CN(C)C(=O)c2ccc(N3CCCCCC3)c([N+](=O)[O-])c2)cc1OCC`, the Potency is reported as inconclusive: 29.1 µM [cytotoxic, single point].
In the case of `COc1ccc(C2CCCN2C(=S)Nc2ccc(C)cc2C)cc1OC` (stereo not drawn), the Potency is reported as inconclusive: 32.6 µM [cytotoxic, single point].
In the case of `CCc1cccc(C)c1NS(=O)(=O)c1ccc(-n2cccn2)cc1`, the “activity change, negative = cytotoxicity” value is reported as inactive: 0%.
With `Cc1cccnc1NC(=O)Nc1ccccc1` the “activity change, negative = cytotoxicity” value was inactive: 0.332%.
For `Cc1nc2ccc(NC(=O)c3ccc(Br)o3)cc2s1`, the Potency was inconclusive: 14.6 µM [cytotoxic, partial curve].
In the case of `CCOc1ccc(-c2nonc2NC(=O)c2oc3cc(Br)ccc3c2C)cc1`, the Potency is reported as inconclusive: 8.2 µM [cytotoxic, partial curve, poor fit].
In the case of `COc1ccc(Br)cc1CNC(=O)C1CCCN(S(=O)(=O)N2CCC(C)CC2)C1` (stereo not drawn), the Potency is reported as inconclusive: 6.51 µM [cytotoxic, full curve, poor fit].
In the case of `Cc1ccccc1OCC(=O)Nc1ccc(S(=O)(=O)N2CCOCC2)cc1`, the Potency is reported as inconclusive: 13 µM [cytotoxic, partial curve].
With `COc1ccc(-n2nc(C(=O)c3cccs3)cc(-c3nc4ccccc4[nH]3)c2=N)cc1` the Potency was active: 16.4 µM.
For `CCn1cc(C(=O)NCCN(C)C)c(=O)c2cc(F)c(N3CCN(C)CC3)cc21`, the Potency was inconclusive: 18.4 µM [rising, single point].
With `CCc1noc(C)c1C(=O)OC(C)C(=O)NCc1ccc(OC)cc1` (stereo not drawn) the Potency was inconclusive: 25.9 µM [cytotoxic, single point].
For `Cc1cc(C(=O)CSc2nnc(-c3cccc(F)c3)n2N)c(C)n1Cc1ccc2c(c1)OCO2`, the Potency was active: 2.59 µM.
In the case of `Cc1nc(CS(=O)c2ccc(Cl)cc2)cc(NCc2ccc(Cl)cc2Cl)n1` (stereo not drawn), the Potency is reported as inconclusive: 32.6 µM [cytotoxic, single point].
For `Cc1cc(C)nc(N2CCCC(C(=O)Nc3nnc(C(C)(C)C)s3)C2)n1` (stereo not drawn), the Potency was inconclusive: 4.11 µM [cytotoxic, full curve].
With `COc1ccc([C@H]2/C=C\CN(S(=O)(=O)c3ccc(C)cc3)[C@@H](C)C(=O)N2Cc2ccc(F)cc2)cc1` the Potency was inconclusive: 20.6 µM [cytotoxic, single point].
With `CC(=O)n1cc(Nc2ccccc2C(=O)O)c2ccccc21` the Potency was inconclusive: 14.6 µM [rising, single point].
With `Cc1n[nH]c(C)c1CN(C)C(=O)C1CCC(=O)N(CCc2cccc(F)c2)C1` (stereo not drawn) the Potency was inconclusive: 29.1 µM [rising, single point].
In the case of `CCN(Cc1ccccc1)C(=O)C(CC(C)C)NS(=O)(=O)c1ccc2c(c1)CCN2C(C)=O` (stereo not drawn), the “activity change, negative = cytotoxicity” value is reported as inactive: 1.63%.
In the case of `CCOC(CNC(=O)c1ccc2c(c1)nc(C)n2-c1cccc(F)c1)OCC`, the Potency is reported as active: 20.6 µM.
For `CCOC(=O)Cc1csc(NC(=O)CSc2nncn2C)n1`, the “activity change, negative = cytotoxicity” value was inactive: 0%.
In the case of `COC(=O)N/N=C/c1cccs1`, the Potency is reported as inconclusive: 29.1 µM [rising, single point].
With `COc1ccc(S(=O)(=O)n2c([N+](=O)[O-])cnc2C)c(C)c1C` the Potency was inconclusive: 2.31 µM [rising, full curve].
For `COc1ccc(N2CCN(Cc3nc4c(c(=O)n(C)c(=O)n4C)n3Cc3cccc(C)c3)CC2)cc1`, the Potency was inconclusive: 2.91 µM [rising, partial curve, poor fit].
For `CC(=O)NC1=NN(C(C)=O)C(C)(c2ccccc2)S1` (stereo not drawn), the Potency was active: 7.31 µM.
With `Cc1ccc(-n2c(=O)c3ccccc3n(CC(=O)Nc3cccc(C(F)(F)F)c3)c2=O)cc1` the Potency was inconclusive: 29.1 µM [cytotoxic, single point].
For `COC(=O)c1nonc1NCn1nnc2ccccc21`, the Potency was inconclusive: 0.651 µM [rising, full curve, poor fit].
With `COC(=O)[C@@]12C[C@@H](CC(=O)NCc3cccc4ccccc34)C(=O)N(Cc3ccco3)C1=CCC(C)(C)C2` the Potency was active: 20.6 µM.
With `C#CCn1c2ccccc2c(=O)n1CCOc1ccccc1OC` the Potency was inconclusive: 16.4 µM [cytotoxic, partial curve, poor fit].
With `Cc1cc([N+](=O)[O-])nn1CCCC(=O)Nc1cc(Oc2ccc(F)cc2)cc([N+](=O)[O-])c1` the Potency was active: 5.8 µM.
In the case of `CCOCCCNC(=O)Cn1nc(-c2ccccc2)ccc1=O`, the Potency is reported as inconclusive: 3.66 µM [rising, partial curve, poor fit].
In the case of `O=C(Cn1c(=O)n(-c2ccccc2)c(=O)c2sc3ccccc3c21)NC1CCCC1`, the “activity change, negative = cytotoxicity” value is reported as inactive: -24.6%.
In the case of `O=C(COC(=O)C1CC(=O)N(Cc2ccco2)C1)Nc1nc(-c2ccc(F)cc2)cs1` (stereo not drawn), the Potency is reported as inconclusive: 29.1 µM [rising, single point].
With `N#C/C(=C\c1ccc(Cl)cc1)c1nc(-c2cc3c(ccc4ccccc43)oc2=O)cs1` the Potency was inconclusive: 25.9 µM [rising, partial curve, poor fit].
With `Cc1ccc(COC[C@H](CC(C)C)N2CCN(C(=O)c3cccc(C(F)(F)F)c3)CCC2=O)cc1` the Potency was inconclusive: 5.8 µM [cytotoxic, partial curve].
For `Cc1ccc(S(=O)(=O)/N=C(\N)Nc2nc(C)c3cc(C)ccc3n2)cc1`, the Potency was active: 14.6 µM.
In the case of `O=c1c(-c2cccnc2)nc2ccccc2n1C(CCc1ccccc1)c1nc2ccccc2[nH]1` (stereo not drawn), the Potency is reported as inconclusive: 20.6 µM [cytotoxic, partial curve].
For `Cc1noc2ncnc(N3CCN(c4cccc(Cl)c4)CC3)c12`, the “activity change, negative = cytotoxicity” value was inactive: -0.758%.
With `Cc1ccc(/C=N/NC(=O)C2COc3ccccc3O2)s1` (stereo not drawn) the Potency was inconclusive: 2.31 µM [cytotoxic, partial curve, poor fit].
In the case of `Cc1ccccc1Nc1nnc(SCc2cc(=O)n3ccsc3n2)s1`, the “activity change, negative = cytotoxicity” value is reported as inactive: -1.46%.
For `CCOC(=O)C1C(=O)N(C(=O)c2cncc(Br)c2)CC1c1ccccc1` (stereo not drawn), the Potency was inconclusive: 29.1 µM [cytotoxic, single point].
